Assay results published in patent publication US7683035B1, “Method of stabilizing and/or isolating nucleic acids” (Qiagen, GmbH, priority 1999, dated 2010).

What was measured:
[1] = tested on: radiolabelled in vitro transcript of the mouse Evx gene in plasma; experiment: Example 4 Experiment A: isolation of radiolabelled RNA transcript from plasma, sedimentation at 10,000×g and silica spin column
[2] = tested on: radiolabelled in vitro transcript of the mouse Evx gene in plasma; experiment: Example 4 Experiment B: sedimentation of RNA/cationic compound complexes from 1 ml plasma at about 4,500×g
[3] = tested on: HeLa RNA; experiment: Example 13: isolation of pure HeLa RNA by complexing, silica spin column; settings: 25 μg HeLa RNA employed
[4] = 0 μg carrier, 4 volumes […] solution, 140 μl plasma
[5] = substance concentration 9% (w/v)
[6] = substance concentration 15% (w/v)

tetradecyltrimethylammonium oxalate
RNA in eluate (%) [1, 4]: 3% | RNA in supernatant (%) [1, 4]: 83% | RNA in eluate (%) ([1]; 2.5 μg carrier): 13% | RNA in supernatant (%) ([1]; 2.5 μg carrier): 79% | RNA in eluate (%) ([1]; 5 μg carrier): 26% | RNA in supernatant (%) ([1]; 5 μg carrier): 63% | RNA in eluate (%) ([1]; 7.5 μg carrier): 39% | RNA in supernatant (%) ([1]; 7.5 μg carrier): 49% | RNA in eluate (%) ([1]; 10 μg carrier): 55% | RNA in supernatant (%) ([1]; 10 μg carrier): 30% | RNA in eluate (%) ([1]; 25 μg carrier): 75% | RNA in supernatant (%) ([1]; 25 μg carrier): 5% | Amount of radiolabelled RNA (%) in the sediment ([2]; 50 μg of carrier, centrifugation time 10 min): 22% | Amount of radiolabelled RNA (%) in the sediment ([2]; 50 μg of carrier, centrifugation time 20 min): 31% | Amount of radiolabelled RNA (%) in the sediment ([2]; 50 μg of carrier, centrifugation time 30 min): 36% | Amount of radiolabelled RNA (%) in the sediment ([2]; 50 μg of carrier, centrifugation time 40 min): 46% | Amount of radiolabelled RNA (%) in the sediment ([2]; 100 μg of carrier, centrifugation time 20 min): 79% | Amount of radiolabelled RNA (%) in the sediment ([2]; 100 μg of carrier, centrifugation time 40 min): 89% | Amount of radiolabelled RNA (%) in the sediment ([2]; 150 μg of carrier, centrifugation time 20 min): 84% | Amount of radiolabelled RNA (%) in the sediment ([2]; 150 μg of carrier, centrifugation time 40 min): 91%

CCCCCCCCCC[N+](C)(C)CC[N+](C)(C)CCCCCCCCCC.O=S([O-])([O-])=S [Ethanediyl-1,2-bis(dimethyldecylammonium thiosulfate)]
Yield of HeLa RNA in the eluate ([3]; substance concentration 1% (w/v)): 24.5 µg | Yield of HeLa RNA in the eluate [3, 5]: 25 µg | Yield of HeLa RNA in the eluate [3, 6]: 24 µg

CCCCCCCCCC[N+](C)(C)CC[N+](C)(C)CCCCCCCCCC.O=S(=O)([O-])[O-] [Ethanediyl-1,2-bis(dimethyldecylammonium sulfate)]
Yield of HeLa RNA in the eluate [3, 5]: 25 µg | Yield of HeLa RNA in the eluate [3, 6]: 22.4 µg
